# This is one part of the list.
# B1: MFG-E8 (Homo sapiens), Q08431 (protein)
# chain: MPRPRLLAALCGALLCAPSLLVALDICSKNPCHNGGLCEEISQEVRGDVFPSYTCTCLKGYAGNHCETKCVEPLGLENGNIANSQIAASSVRVTFLGLQHWVPELARLNRAGMVNAWTPSSNDDNPWIQVNLLRRMWVTGVVTQGASRLASHEYLKAFKVAYSLNGHEFDFIHDVNKKHKEFVGNWNKNAVHVNLFETPVEAQYVRLYPTSCHTACTLRFELLGCELNGCANPLGLKNNSIPDKQITASSSYKTWGLHLFSWNPSYARLDKQGNFNAWVAGSYGNDQWLQVDLGSSKEVTGIITQGARNFGSVQFVASYKVAYSNDSANWTEYQDPRTGSSKIFPGNWDNHSHKKNLFETPILARYVRILPVAWHNRIALRLELLGC
# Key:
# Test in all cases: glycan array binding signal (z-score within array); higher = stronger binding
# Details in all cases: glycan notation: IUPAC condensed, linker removed
# GlcA(b1-3)Gal = biological target: GlcA(b1-3)Gal
# Outline: (§1)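 From the Consortium for Functional Glycomics database, 3228 arrays were curated, keeping only those whose protein sequence was available. Binding is given as a within-array Z-score averaged across arrays sharing a protein sequence and across linkers. Negative Z-scores can be read as non-binding.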
# GlcA(b1-3)GlcNAc = biological target: GlcA(b1-3)GlcNAc
# Outline: as §1
# GlcA(b1-6)Gal = biological target: GlcA(b1-6)Gal
# Outline: as §1
# [1] = biological target: GlcNAc(a1-3)Gal(b1-4)GlcNAc
# Outline: as §1
# [2] = biological target: GlcNAc(a1-4)Gal(b1-3)GlcNAc
# Outline: as §1
# [3] = biological target: GlcNAc(a1-4)Gal(b1-4)GalNAc
# Outline: as §1
# [4] = biological target: GlcNAc(a1-4)Gal(b1-4)GlcNAc
# Outline: as §1
# [5] = biological target: GlcNAc(a1-4)Gal(b1-4)GlcNAc(b1-3)Gal(b1-4)Glc
# Outline: as §1
# [6] = biological target: GlcNAc(a1-4)Gal(b1-4)GlcNAc(b1-3)Gal(b1-4)GlcNAc
# Outline: as §1
# [7] = biological target: GlcNAc(a1-4)Gal(b1-4)GlcNAc(b1-3)Gal(b1-4)GlcNAc(b1-3)Gal(b1-4)GlcNAc
# Outline: as §1
# [8] = biological target: GlcNAc(a1-4)Gal(b1-4)GlcNAc(b1-3)Gal(b1-4)[Fuc(a1-3)]GlcNAc(b1-3)Gal(b1-4)[Fuc(a1-3)]GlcNAc
# Outline: as §1
# [9] = biological target: GlcNAc(a1-6)Gal(b1-4)GlcNAc
# Outline: as §1
# [10] = biological target: GlcNAc(b1-2)Gal(b1-3)GalNAc
# Outline: as §1
# [11] = biological target: GlcNAc(b1-2)Man(a1-3)[GlcNAc(b1-2)Man(a1-6)]Man(b1-4)GlcNAc(b1-4)GlcNAc
# Outline: as §1
# [12] = biological target: GlcNAc(b1-2)Man(a1-3)[GlcNAc(b1-2)Man(a1-6)]Man(b1-4)GlcNAc(b1-4)[Fuc(a1-6)]GlcNAc
# Outline: as §1
# [13] = biological target: GlcNAc(b1-2)Man(a1-3)[GlcNAc(b1-4)][GlcNAc(b1-2)Man(a1-6)]Man(b1-4)GlcNAc(b1-4)GlcNAc
# Outline: as §1
# [14] = biological target: GlcNAc(b1-2)[GlcNAc(b1-4)]Man(a1-3)[GlcNAc(b1-2)Man(a1-6)]Man(b1-4)GlcNAc(b1-4)GlcNAc
# Outline: as §1
# [15] = biological target: GlcNAc(b1-2)[GlcNAc(b1-4)]Man(a1-3)[GlcNAc(b1-4)][GlcNAc(b1-2)Man(a1-6)]Man(b1-4)GlcNAc(b1-4)GlcNAc
# Outline: as §1
# [16] = biological target: GlcNAc(b1-2)[GlcNAc(b1-4)]Man(a1-3)[GlcNAc(b1-4)][GlcNAc(b1-2)[GlcNAc(b1-6)]Man(a1-6)]Man(b1-4)GlcNAc(b1-4)GlcNAc
# Outline: as §1
# [17] = biological target: GlcNAc(b1-2)[GlcNAc(b1-6)]Man(a1-6)[GlcNAc(b1-2)Man(a1-3)]Man(b1-4)GlcNAc(b1-4)GlcNAc
# Outline: as §1
# [18] = biological target: GlcNAc(b1-2)[GlcNAc(b1-6)]Man(a1-6)[GlcNAc(b1-2)Man(a1-3)][GlcNAc(b1-4)]Man(b1-4)GlcNAc(b1-4)GlcNAc
# Outline: as §1
# GlcNAc(b1-3)Gal = biological target: GlcNAc(b1-3)Gal
# Outline: as §1
# [19] = biological target: GlcNAc(b1-3)Gal(b1-3)GalNAc
# Outline: as §1
# GlcNAc(b1-3)Gal(b1-4)Glc = biological target: GlcNAc(b1-3)Gal(b1-4)Glc
# Outline: as §1
# [20] = biological target: GlcNAc(b1-3)Gal(b1-4)GlcNAc
# Outline: as §1
# [21] = biological target: GlcNAc(b1-3)Gal(b1-4)GlcNAc(b1-3)Gal(b1-4)GlcNAc
# Outline: as §1
# GlcNAc(b1-3)GalNAc = biological target: GlcNAc(b1-3)GalNAc
# Outline: as §1
# GlcNAc(b1-3)Man = biological target: GlcNAc(b1-3)Man
# Outline: as §1
# [22] = biological target: GlcNAc(b1-3)[GlcNAc(b1-4)][GlcNAc(b1-6)]GlcNAc
# Outline: as §1
# [23] = biological target: GlcNAc(b1-3)[GlcNAc(b1-6)]Gal(b1-4)GlcNAc
# Outline: as §1
# [24] = biological target: GlcNAc(b1-3)[GlcNAc(b1-6)]GalNAc
# Outline: as §1
# [25] = biological target: GlcNAc(b1-4)Gal(b1-4)GlcNAc
# Outline: as §1
# GlcNAc(b1-4)GlcNAc = biological target: GlcNAc(b1-4)GlcNAc
# Outline: as §1
# [26] = biological target: GlcNAc(b1-4)GlcNAc(b1-4)GlcNAc
# Outline: as §1
# [27] = biological target: GlcNAc(b1-4)GlcNAc(b1-4)GlcNAc(b1-4)GlcNAc(b1-4)GlcNAc
# Outline: as §1
# [28] = biological target: GlcNAc(b1-4)GlcNAc(b1-4)GlcNAc(b1-4)GlcNAc(b1-4)GlcNAc(b1-4)GlcNAc
# Outline: as §1
# [29] = biological target: GlcNAc(b1-4)[GlcNAc(b1-6)]GalNAc
# Outline: as §1
# [30] = biological target: GlcNAc(b1-6)Gal(b1-4)GlcNAc
# Outline: as §1
binder,measurement,setting,value
B1,glycan array binding signal (z-score),GlcA(b1-3)Gal,-0.402
same,glycan array binding signal (z-score),GlcA(b1-3)GlcNAc,0.43
same,glycan array binding signal (z-score),GlcA(b1-6)Gal,0.102
same,glycan array binding signal (z-score),[1],-0.366
same,glycan array binding signal (z-score),[2],-0.689
same,glycan array binding signal (z-score),[3],0.62
same,glycan array binding signal (z-score),[4],-0.633
same,glycan array binding signal (z-score),[5],-0.781
same,glycan array binding signal (z-score),[6],3.21
same,glycan array binding signal (z-score),[7],-0.078
same,glycan array binding signal (z-score),[8],-0.064
same,glycan array binding signal (z-score),[9],-0.786
same,glycan array binding signal (z-score),[10],-0.68
same,glycan array binding signal (z-score),[11],0.22
same,glycan array binding signal (z-score),[12],0.498
same,glycan array binding signal (z-score),[13],-0.345
same,glycan array binding signal (z-score),[14],0.442
same,glycan array binding signal (z-score),[15],1.76
same,glycan array binding signal (z-score),[16],1.57
same,glycan array binding signal (z-score),[17],2.13
same,glycan array binding signal (z-score),[18],-0.144
same,glycan array binding signal (z-score),GlcNAc(b1-3)Gal,-0.329
same,glycan array binding signal (z-score),[19],0.268
same,glycan array binding signal (z-score),GlcNAc(b1-3)Gal(b1-4)Glc,-0.526
same,glycan array binding signal (z-score),[20],-0.62
same,glycan array binding signal (z-score),[21],-0.66
same,glycan array binding signal (z-score),GlcNAc(b1-3)GalNAc,-0.488
same,glycan array binding signal (z-score),GlcNAc(b1-3)Man,0.419
same,glycan array binding signal (z-score),[22],-0.183
same,glycan array binding signal (z-score),[23],-0.553
same,glycan array binding signal (z-score),[24],0.166
same,glycan array binding signal (z-score),[25],0.313
same,glycan array binding signal (z-score),GlcNAc(b1-4)GlcNAc,0.206
same,glycan array binding signal (z-score),[26],-0.556
same,glycan array binding signal (z-score),[27],-0.126
same,glycan array binding signal (z-score),[28],-0.589
same,glycan array binding signal (z-score),[29],-0.585
same,glycan array binding signal (z-score),[30],-0.77

# An excerpt taken from the entries so far, as a working copy:
binder,measurement,setting,value
B1,glycan array binding signal (z-score),[4],-0.633
same,glycan array binding signal (z-score),[5],-0.781
same,glycan array binding signal (z-score),[6],3.21
same,glycan array binding signal (z-score),[7],-0.078
same,glycan array binding signal (z-score),[8],-0.064
same,glycan array binding signal (z-score),[9],-0.786
same,glycan array binding signal (z-score),[10],-0.68
same,glycan array binding signal (z-score),[11],0.22
